## Results of single-concentration screens

Amino acid sequences for entries named in this document (tags omitted). Residues count along the entry.
UniProt I6X8D2, whole entry: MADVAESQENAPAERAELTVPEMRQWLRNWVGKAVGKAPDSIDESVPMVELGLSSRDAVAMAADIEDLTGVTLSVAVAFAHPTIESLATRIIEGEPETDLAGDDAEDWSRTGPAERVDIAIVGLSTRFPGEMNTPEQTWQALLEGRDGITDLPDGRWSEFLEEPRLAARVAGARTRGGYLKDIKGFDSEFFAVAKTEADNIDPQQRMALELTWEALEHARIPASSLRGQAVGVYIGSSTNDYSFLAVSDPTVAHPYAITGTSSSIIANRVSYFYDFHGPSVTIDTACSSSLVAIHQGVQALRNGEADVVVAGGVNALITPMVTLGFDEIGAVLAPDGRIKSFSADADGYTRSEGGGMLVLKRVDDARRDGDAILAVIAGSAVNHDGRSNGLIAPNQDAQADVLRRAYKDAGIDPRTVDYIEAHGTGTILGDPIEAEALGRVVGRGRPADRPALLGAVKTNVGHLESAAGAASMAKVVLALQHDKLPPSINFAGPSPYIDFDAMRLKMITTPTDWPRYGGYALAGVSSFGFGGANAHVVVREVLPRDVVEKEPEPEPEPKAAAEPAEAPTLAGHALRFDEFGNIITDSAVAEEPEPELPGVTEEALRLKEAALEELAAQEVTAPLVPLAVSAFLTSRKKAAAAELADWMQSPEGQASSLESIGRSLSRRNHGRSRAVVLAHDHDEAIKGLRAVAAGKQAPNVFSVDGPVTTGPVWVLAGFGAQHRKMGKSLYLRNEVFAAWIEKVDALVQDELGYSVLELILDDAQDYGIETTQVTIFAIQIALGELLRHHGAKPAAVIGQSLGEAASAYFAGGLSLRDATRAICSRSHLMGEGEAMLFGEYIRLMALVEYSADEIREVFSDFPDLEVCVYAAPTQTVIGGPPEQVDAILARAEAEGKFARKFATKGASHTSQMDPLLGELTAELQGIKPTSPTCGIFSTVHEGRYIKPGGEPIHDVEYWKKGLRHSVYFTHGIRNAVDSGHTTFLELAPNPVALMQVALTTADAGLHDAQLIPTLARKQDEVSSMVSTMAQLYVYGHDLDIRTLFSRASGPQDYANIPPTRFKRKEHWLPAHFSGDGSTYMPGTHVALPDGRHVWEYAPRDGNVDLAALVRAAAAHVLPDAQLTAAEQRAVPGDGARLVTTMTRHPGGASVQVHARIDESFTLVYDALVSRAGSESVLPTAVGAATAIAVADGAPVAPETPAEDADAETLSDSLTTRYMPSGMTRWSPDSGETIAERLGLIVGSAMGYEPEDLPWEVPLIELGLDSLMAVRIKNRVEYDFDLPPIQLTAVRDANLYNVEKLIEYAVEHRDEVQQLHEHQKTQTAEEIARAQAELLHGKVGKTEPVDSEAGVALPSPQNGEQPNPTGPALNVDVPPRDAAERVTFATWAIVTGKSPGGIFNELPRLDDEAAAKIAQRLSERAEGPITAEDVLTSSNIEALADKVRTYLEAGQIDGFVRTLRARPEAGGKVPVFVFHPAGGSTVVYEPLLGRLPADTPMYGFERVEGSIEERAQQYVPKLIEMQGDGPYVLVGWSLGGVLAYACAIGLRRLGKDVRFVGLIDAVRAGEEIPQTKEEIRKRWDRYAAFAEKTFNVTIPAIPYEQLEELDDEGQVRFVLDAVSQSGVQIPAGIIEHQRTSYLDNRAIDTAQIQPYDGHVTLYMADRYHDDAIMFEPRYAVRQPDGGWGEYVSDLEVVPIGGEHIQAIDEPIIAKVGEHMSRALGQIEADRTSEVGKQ
UniProt Q8IDJ8, 1-583: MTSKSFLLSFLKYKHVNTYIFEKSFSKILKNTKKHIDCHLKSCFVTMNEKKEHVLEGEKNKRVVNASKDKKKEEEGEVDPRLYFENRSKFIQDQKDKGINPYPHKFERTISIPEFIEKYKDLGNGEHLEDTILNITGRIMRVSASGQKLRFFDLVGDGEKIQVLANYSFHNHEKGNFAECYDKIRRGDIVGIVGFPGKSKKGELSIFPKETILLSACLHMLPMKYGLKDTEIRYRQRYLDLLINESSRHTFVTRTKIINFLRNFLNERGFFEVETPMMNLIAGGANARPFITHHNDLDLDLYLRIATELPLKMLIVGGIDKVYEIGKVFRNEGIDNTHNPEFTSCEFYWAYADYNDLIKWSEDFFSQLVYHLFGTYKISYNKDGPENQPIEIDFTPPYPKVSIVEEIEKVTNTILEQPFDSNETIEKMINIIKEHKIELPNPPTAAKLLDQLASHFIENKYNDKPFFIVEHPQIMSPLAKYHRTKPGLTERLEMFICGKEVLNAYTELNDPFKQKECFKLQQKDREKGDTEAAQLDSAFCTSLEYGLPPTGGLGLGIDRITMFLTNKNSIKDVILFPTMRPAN
UniProt A4I591, 1-473: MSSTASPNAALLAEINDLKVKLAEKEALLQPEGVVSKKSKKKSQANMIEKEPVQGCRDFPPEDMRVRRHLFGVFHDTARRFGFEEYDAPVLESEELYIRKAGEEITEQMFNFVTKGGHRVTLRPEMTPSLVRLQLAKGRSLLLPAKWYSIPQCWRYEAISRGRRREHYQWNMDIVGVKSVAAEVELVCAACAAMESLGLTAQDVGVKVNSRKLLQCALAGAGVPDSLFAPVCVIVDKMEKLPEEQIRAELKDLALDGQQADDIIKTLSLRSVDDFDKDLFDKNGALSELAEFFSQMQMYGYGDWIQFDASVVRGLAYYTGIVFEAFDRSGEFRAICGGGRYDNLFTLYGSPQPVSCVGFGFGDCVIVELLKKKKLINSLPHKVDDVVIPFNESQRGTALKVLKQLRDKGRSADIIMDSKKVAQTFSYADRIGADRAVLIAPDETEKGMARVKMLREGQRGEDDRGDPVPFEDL
UniProt Q4DA54, 1-478: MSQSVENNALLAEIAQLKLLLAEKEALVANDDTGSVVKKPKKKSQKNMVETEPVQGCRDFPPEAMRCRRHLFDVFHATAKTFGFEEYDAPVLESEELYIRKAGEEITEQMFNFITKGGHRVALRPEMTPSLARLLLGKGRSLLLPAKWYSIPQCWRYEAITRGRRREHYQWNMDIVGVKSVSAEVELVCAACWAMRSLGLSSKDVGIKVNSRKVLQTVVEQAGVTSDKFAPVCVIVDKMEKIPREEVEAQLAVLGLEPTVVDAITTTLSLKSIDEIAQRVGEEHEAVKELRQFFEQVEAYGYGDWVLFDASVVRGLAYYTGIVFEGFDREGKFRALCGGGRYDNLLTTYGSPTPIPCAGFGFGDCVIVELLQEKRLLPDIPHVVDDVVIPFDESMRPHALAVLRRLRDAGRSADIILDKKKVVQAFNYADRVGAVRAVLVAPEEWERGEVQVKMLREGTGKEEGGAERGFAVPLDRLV

Source: ChEMBL document CHEMBL3988442, “University of Dundee, Small-Polar-MMV Screening Library” (2021).

Each number is a percent effect as filed. The record does not define 0% and 100%; most values in the screen are far below 50% and negative numbers occur (in some assays of this library far below -100). The compounds are a random part of those screened.

Pks13 thioesterase: 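Enzyme assay of the thioesterase domain of polyketide synthase 13; the read-out is not stated. Target: Polyketide synthase Pks13, Mycobacterium tuberculosis (UniProt I6X8D2). Compounds at 30 µM. The record gives no direction; the compounds picked for IC50 retests had high values, so higher reads as stronger inhibition. Size under these conditions: about 67,000 compounds, about 300 of them at 50% or above in at least one test.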
PfKRS1: 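Enzyme assay of the cytosolic lysyl-tRNA synthetase in 384-well plates, read by luminescence. Target: Lysine-tRNA ligase, Plasmodium falciparum 3D7 (UniProt Q8IDJ8). Compounds at 30 µM. Higher reads as stronger inhibition, judged from the few compounds that gave an IC50. Size under these conditions: about 69,000 compounds, about 49 of them at 50% or above in at least one test.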
LiHisRS: 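Histidine-tRNA ligase, Leishmania infantum (UniProt A4I591). Enzyme assay of histidyl-tRNA synthetase; the read-out is not stated. Tested at 30 µM. Direction is inferred from retests: higher values go with stronger inhibition. The assay is labelled LdHisRS but filed under L. infantum. Of about 69,000 compounds tested this way, about 410 (0.6%) reached 50% or more in at least one test.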
TcHisRS: 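Enzyme assay of histidyl-tRNA synthetase; the read-out is not stated. Target: Histidine-tRNA ligase, Trypanosoma cruzi CL Brener (UniProt Q4DA54). Tested at 30 µM. The record gives no direction; compounds that gave an IC50 in retests scored well above the rest, so higher reads as stronger inhibition. Size under these conditions: about 69,000 compounds, about 31 of them at 50% or above in at least one test.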

{"structure": "O=C(c1coc(-c2ccccc2)n1)N1CCCC1", "Pks13 thioesterase": -10.93, "PfKRS1": -5.844, "LiHisRS": -1.961, "TcHisRS": -2.469}
{"structure": "CCCSCC(=O)Nc1ncn(CC(=O)NCc2ccccc2)n1", "Pks13 thioesterase": -4.424, "PfKRS1": 1.402, "LiHisRS": 20.39, "TcHisRS": 5.394}
{"structure": "Cc1ccsc1CCNC(=O)C1(Oc2cccnc2C)CCNCC1", "Pks13 thioesterase": 0.215, "PfKRS1": -0.3003, "LiHisRS": 13.11, "TcHisRS": 0}
{"structure": "OC[C@@H]1CCCN1c1nccc(-c2c[nH]nc2-c2ccncc2)n1", "Pks13 thioesterase": 8.26, "PfKRS1": 4.206, "LiHisRS": 14.29, "TcHisRS": 11.3}
{"structure": "Cc1cncc(C(=O)N2CCO[C@H]3[C@H](Oc4ccccn4)CC[C@@H]32)c1", "Pks13 thioesterase": -1.871, "PfKRS1": 2.731, "LiHisRS": 15, "TcHisRS": 6.122}
{"structure": "O=C(NCCS(=O)(=O)N1CCN(c2ncccn2)CC1)C1CCCC1", "Pks13 thioesterase": -10.78, "PfKRS1": 2.007, "LiHisRS": 14.67, "TcHisRS": 0.5291}
{"structure": "NC1CCc2nc(-c3ccncc3)nc(Nc3cccc(F)c3)c2C1", "stereo": "stereo unspecified", "Pks13 thioesterase": 4.075, "PfKRS1": 1.096, "LiHisRS": 48.95, "TcHisRS": 11.86}
{"structure": "CNc1nc(CNC(=O)Nc2ccc(SC)c(F)c2)cs1", "Pks13 thioesterase": -14.3, "PfKRS1": 0.5297, "LiHisRS": 20.18, "TcHisRS": 7.872}
{"structure": "COCC(=O)N1CCCC2(CCN(c3ccccc3)C2=O)C1", "stereo": "stereo unspecified", "Pks13 thioesterase": -16.37, "PfKRS1": 4.793, "LiHisRS": 11, "TcHisRS": 7.143}
{"structure": "O=C(Cn1nc(C(F)(F)F)c(Cl)c1C1CC1)NN1CCOCC1", "Pks13 thioesterase": -10.8, "PfKRS1": 4.084, "LiHisRS": 7.5, "TcHisRS": 4.969}
{"structure": "Cc1nc(C)n(CC2CCCN(c3ccnc(-c4ccccc4)n3)C2)n1", "stereo": "stereo unspecified", "Pks13 thioesterase": -0.2897, "PfKRS1": 8.182, "LiHisRS": 16.44, "TcHisRS": 6.316}
{"structure": "Cc1cc(C(=O)N2CCN(c3ncc4c(n3)CCOC4)CC2)sc1C", "Pks13 thioesterase": 13.69, "PfKRS1": 0.8311, "LiHisRS": 5.594, "TcHisRS": 3.955}
{"structure": "CC(Cn1cccn1)NC(=O)NCc1ccccn1", "stereo": "stereo unspecified", "Pks13 thioesterase": 3.27, "PfKRS1": 1.783, "LiHisRS": 12.16, "TcHisRS": 1.132}
{"structure": "CCc1c(C)sc2nc3n(CCN4CCCCC4)nc(SC)n3c(=O)c12", "Pks13 thioesterase": -2.512, "PfKRS1": 7.695, "LiHisRS": 22.5, "TcHisRS": 1.242}
{"structure": "O=C(O)[C@@H]1CN(Cc2cnc(C3CCCCC3)nc2)C[C@H]1C1CC1", "Pks13 thioesterase": 5.081, "PfKRS1": 0.1849, "LiHisRS": 32.88, "TcHisRS": 1.093}
{"structure": "COCCCOc1ccc(C(=O)N(C)Cc2cccc(O)c2)cn1", "Pks13 thioesterase": -3.371, "PfKRS1": 8.143, "LiHisRS": 20.54, "TcHisRS": 10}
{"structure": "O=C(CCNC(=O)C1=Cc2ccccc2OC1)NCc1ccncc1", "Pks13 thioesterase": 0.3795, "PfKRS1": -0.9984, "LiHisRS": 15, "TcHisRS": 9.804}
{"structure": "CCn1c(Cn2cncn2)nnc1C1CCN(C2CCOCC2)CC1", "Pks13 thioesterase": 16.03, "PfKRS1": -4.601, "LiHisRS": -5.128, "TcHisRS": 6.024}
{"structure": "Cc1cccc2cc(C(=O)N3CCC(F)(F)CC3)n(C)c12", "Pks13 thioesterase": -10.94, "PfKRS1": -9.258, "LiHisRS": -3.03, "TcHisRS": -9.783}
{"structure": "Cc1nc2n(n1)CC(Nc1ncnc3c1CCC3)CC2", "stereo": "stereo unspecified", "Pks13 thioesterase": -35.64, "PfKRS1": 3.613, "LiHisRS": 17.95, "TcHisRS": 1.149}

2 of the entries, repeated:

structure,Pks13 thioesterase,PfKRS1,LiHisRS,TcHisRS
Cc1ccsc1CCNC(=O)C1(Oc2cccnc2C)CCNCC1,0.215%,-0.3003%,13.11%,0%
O=C(CCNC(=O)C1=Cc2ccccc2OC1)NCc1ccncc1,0.3795%,-0.9984%,15%,9.804%